Source: US11987566B2, “Nerve damage preventing and nerve protecting compounds, preparation method thereof, pharmaceutical composition thereof, and their use” (GENHEALTH PHARMA CO., LTD., priority 2022, dated 2024)
Where “and” joins values, the source holds several entries; their conditions need not be identical. Identical values can stand only once. Some entries share one result that the patent states for a list of compounds. The name of at least one read-out is uncertain.

System: transient focal Middle Cerebral Artery Occlusion/Reperfusion model (MCAO/R model)
Assay: Neurobehavioral evaluation (Bederson classification) after MCAO/R
Conditions: Bederson Grade 0-4, SD rat, 50 mg/kg intraperitoneal, vehicle group 2.80

**Q.** How did the “Grade (neurobehavioral evaluation), time point of 24-hour after blood reperfusion” value turn out when `COc1cc(COC(C)=O)c(OC)c2c1OCO2` [Example 3] was run?
**A.** < 2 and 1.60
